Data on 4 molecules can be found in article doi:10.1101/2021.10.07.463531.

Results are given in words; binding and its absence hold for the method and conditions named. In cells and extracts the contact can be indirect. For some assays here: Binding calls can cover weak binding; strength is not graded here. Sequences can lack the tags named with a protein.

The target in assay [1] is GST-Bicc1-KH (GST fusion of the entire KH tandem repeat of Bicc1) (UniProt Q99MQ1). Description: pull-down.
Another assay deals with HA-Bicc1 ΔKH (UniProt Q99MQ1). The assay can be described thus: co-IP.
The next assay concerns the target HA-Bicc1 ΔKH-mutD (UniProt Q99MQ1). The assay can be described thus: co-IP.

Take HA-Bicc1 ΔKH (from UniProt Q99MQ1): the binding result in assay [1] is recorded as “binds weakly”.

For the molecule HA-Bicc1 ΔSAM (from UniProt Q99MQ1), the binding entry in assay [1] is given as “binds”.

B1: HA-Bicc1 (full-length, wild type) (protein, UniProt Q99MQ1 1-977)
chain: MASQSEPGYLAAAQSDPGSNSERSTDSPVAGSEDDLVAAAPLLHSPEWSEERFRVDRKKLEAMLQAAAEGKGRSGEDFFQKIMEETNTQIAWPSKLKIGAKSKKDPHIKVSGKKEDVKEAKEMIMSVLDTKSNRVTLKMDVSHTEHSHVIGKGGNNIKKVMEDTGCHIHFPDSNRNNQAEKSNQVSIAGQPAGVESARARIRELLPLVLMFELPIAGILQPVPDPNTPSIQHISQTYSVSVSFKQRSRMYGATVTVRGSQNNTNAVKEGTAMLLEHLAGSLASAIPVSTQLDIAAQHHLFMMGRNGSNVKHIMQRTGAQIHFPDPSNPQKKSTVYLQGTIESVCLARQYLMGCLPLVLMFDMKEDIEVDPQVIAQLMEQLDVFISIKPKPKQPSKSVIVKSVERNALNMYEARKCLLGLESSGVSIATSLSPASCPAGLACPSLDILASAGLGLTGLGLLGPTTLSLNTSATPNSLLNALNTSVSPLQSSSSGTPSPTLWAPPIANTASATGFSTIPHLMLPSTAQATLTNILLSGVPTYGHTAPSPPPGLTPVDVHINSMQTEGKNISASINGHVQPANMKYGPLSTSSLGEKVLSSNHGDPSMQTAGPEQASPKSNSVEGCNDAFVEVGMPRSPSHSGNAGDLKQMLGASKVSCAKRQTVELLQGTKNSHLHGTDRLLSDPELSATESPLADKKAPGSERAAERAAAAQQKSERARLASQPTYVHMQAFDYEQKKLLATKAMLKKPVVTEVRTPTNTWSGLGFSKSMPAETIKELRRANHVSYKPTMTTAYEGSSLSLSRSSSREHLASGSESDNWRDRNGIGPMGHSEFSAPIGSPKRKQNKSREHYLSSSNYMDCISSLTGSNGCNLNSCFKGSDLPELFSKLGLGKYTDVFQQQEIDLQTFLTLTDQDLKELGITTFGARRKMLLAISELSKNRRKLFEPPNASCTSFLEGGASGRLPRQYHSDIASVSGRW
B1: the binding entry in assay [1] is recorded as “binds”.

B2: GFP-Bicc1 (protein, UniProt Q99MQ1 1-977)
chain: MASQSEPGYLAAAQSDPGSNSERSTDSPVAGSEDDLVAAAPLLHSPEWSEERFRVDRKKLEAMLQAAAEGKGRSGEDFFQKIMEETNTQIAWPSKLKIGAKSKKDPHIKVSGKKEDVKEAKEMIMSVLDTKSNRVTLKMDVSHTEHSHVIGKGGNNIKKVMEDTGCHIHFPDSNRNNQAEKSNQVSIAGQPAGVESARARIRELLPLVLMFELPIAGILQPVPDPNTPSIQHISQTYSVSVSFKQRSRMYGATVTVRGSQNNTNAVKEGTAMLLEHLAGSLASAIPVSTQLDIAAQHHLFMMGRNGSNVKHIMQRTGAQIHFPDPSNPQKKSTVYLQGTIESVCLARQYLMGCLPLVLMFDMKEDIEVDPQVIAQLMEQLDVFISIKPKPKQPSKSVIVKSVERNALNMYEARKCLLGLESSGVSIATSLSPASCPAGLACPSLDILASAGLGLTGLGLLGPTTLSLNTSATPNSLLNALNTSVSPLQSSSSGTPSPTLWAPPIANTASATGFSTIPHLMLPSTAQATLTNILLSGVPTYGHTAPSPPPGLTPVDVHINSMQTEGKNISASINGHVQPANMKYGPLSTSSLGEKVLSSNHGDPSMQTAGPEQASPKSNSVEGCNDAFVEVGMPRSPSHSGNAGDLKQMLGASKVSCAKRQTVELLQGTKNSHLHGTDRLLSDPELSATESPLADKKAPGSERAAERAAAAQQKSERARLASQPTYVHMQAFDYEQKKLLATKAMLKKPVVTEVRTPTNTWSGLGFSKSMPAETIKELRRANHVSYKPTMTTAYEGSSLSLSRSSSREHLASGSESDNWRDRNGIGPMGHSEFSAPIGSPKRKQNKSREHYLSSSNYMDCISSLTGSNGCNLNSCFKGSDLPELFSKLGLGKYTDVFQQQEIDLQTFLTLTDQDLKELGITTFGARRKMLLAISELSKNRRKLFEPPNASCTSFLEGGASGRLPRQYHSDIASVSGRW
Take B2: the binding result with HA-Bicc1 ΔKH is reported as “binds”; in the assay with HA-Bicc1 ΔKH-mutD it was “no binding”.
